Test results reported in US20080317767A1 (priority 2004, published 2008).
[ ]: non-standard residue; d: D form. The star is where a group is joined. Piperazinyl(4-RhodamineB) = CCN(CC)c1ccc2c(-c3ccccc3C(=O)N3CCN(*)CC3)c3ccc(=[N+](CC)CC)cc-3oc2c1; X1 = CC(C)CCC[C@@H](C)[C@H]1CCC2C3CCC4C[C@@H](O*)CC[C@]4(C)C3CC[C@@]21C; Sta = CC(C)C[C@H](N)[C@@H](O)CC(=O)O; βAla = NCCC(=O)O

Experiments:
[1] = general procedure: Fmoc solid-phase peptide synthesis; PAL-PEG-PS; HBTU or HATU; conditions: whole synthesis, scale 0.1 mmol
[2] = general procedure: Fmoc solid-phase peptide synthesis; Fmoc-PAL-PEG-PS amide resin; Sieber amide resin; HBTU or HATU; conditions: whole synthesis, MS-trace, scale of the general procedure 0.25 mmol, 0.1 mmol

Q: Which isolated mass [1] does the source give for “H-E(Piperazinyl(4-RhodamineB))[βAla]GEVN[Sta]VAEFRHDSGYEVHHQKLVFFAEDVGSNKD(X1)-NH2” here?
A: 12.7 mg

Q: And the final ms purity [2]?
A: 80.9%
